Experimental data as given in patent US4855497A, “Novel diamine derivatives” (Chugai Seiyaku Kabushiki Kaisha, priority 1985, dated 1989).

Test system: Acetylcholine
Experiment: Activity against acetylcholine (II): inhibition of acetylcholine-induced saliva excretion
Assay type: in vivo, Beagle dogs
Settings: dose 1 (g), intra-arterially, 1 min before acetylcholine
Method: Activity Against Acetylcholine (II)
Beagle dogs were anesthetized by intravenous administration of pentobarbital (35 mg/kg). The following experiment was conducted in accordance with the method of Sato et al. (Tohoku J. Exp. Med., 108, 377-388, 1982). The left lower jaw of each animal was incised to identify the submandibular gland, the duct through which saliva was excreted from that gland, and the artery nourishing the same gland. A polyethylene tube was first inserted into the excretory duct. Then, a cannula was inserted into the submandibular gland controlling artery and said gland was perfused with the arterial blood drawn from the femoral artery. The tube from the duct was connected to a drop counter and the number of drops of excreted saliva was recorded. The excretion of saliva was induced by intra-arterial administration of acetylcholine.
One minute before the acetylcholine administration, […] (0.1 ml) of a selected compound was administered intra-arterially and its ability to inhibit saliva excretion was examined.

Compound: CN1[C@@H]2CC[C@H]1C[C@@H](OC(=O)C(CO)c1ccccc1)C2 (stereo partly shown) [Atropine]
- Percent inhibition (saliva excretion): 42.9%
